Test results reported in patent US20230071019A1.
Results are given in words; binding and its absence hold for the method and conditions named. Some entries that bind do so weakly or less than the wild type.

By UniProt entry, the sequences of proteins in these tests, tags left out. Residues count along the entry.
UniProt P02769, residues 25-607: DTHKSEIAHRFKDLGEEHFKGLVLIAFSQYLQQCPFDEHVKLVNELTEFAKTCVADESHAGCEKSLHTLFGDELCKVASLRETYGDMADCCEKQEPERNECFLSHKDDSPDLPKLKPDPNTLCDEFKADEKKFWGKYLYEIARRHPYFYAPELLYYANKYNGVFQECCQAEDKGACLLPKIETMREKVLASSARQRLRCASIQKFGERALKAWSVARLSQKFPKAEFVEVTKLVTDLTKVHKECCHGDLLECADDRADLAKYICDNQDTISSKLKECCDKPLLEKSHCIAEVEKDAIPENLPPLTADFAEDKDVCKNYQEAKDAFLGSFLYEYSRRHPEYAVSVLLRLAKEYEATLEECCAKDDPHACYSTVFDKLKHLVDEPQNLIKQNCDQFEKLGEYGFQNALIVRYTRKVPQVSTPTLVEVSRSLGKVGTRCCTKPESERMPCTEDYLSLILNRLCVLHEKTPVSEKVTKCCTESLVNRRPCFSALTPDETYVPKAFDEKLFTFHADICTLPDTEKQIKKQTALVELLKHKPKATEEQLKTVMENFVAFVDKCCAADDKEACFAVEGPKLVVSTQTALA

Target: exatecan conjugated BSA (bovine) (UniProt P02769)
Test: SPR, exatecan-conjugated BSA on the chip

- binding: binds
B1: Anti-Exatecan sdAb TF7 clone (VHH)
VHH: QVQLQESGGGLAQPGGSLRVSCATSGFTFSSNYYISWVRQAPGRGLEWVSAINTGDGSTYYAHSVKGRFTISRDNAKNTLYLQMNSLKPEDTALYYCARSSLEGRIEKPYDYWGQGTQVTVSS
